Ends that are not written are not given here.
Test: Fmoc solid-phase peptide synthesis; Fmoc-Asp(OtBu)-CTC Resin
Details: whole synthesis

Sequence: HKQLPFYEED
- final HPLC purity: purity>95%
